Results: US20080213860
Numbering of substitutions follows the chain as printed. The exact form of at least one protein or probe is not confirmed. Protein sequences can lack the tags named with them.

Tests used:
Assay in all cases: enzyme reaction in vitro
[1] = test system: T1, BsmI R513D (Bacillus stearothermophilus NUB36); conditions: ds-DNA cleavage; protein in an extract; only the site is given
T1 sequence: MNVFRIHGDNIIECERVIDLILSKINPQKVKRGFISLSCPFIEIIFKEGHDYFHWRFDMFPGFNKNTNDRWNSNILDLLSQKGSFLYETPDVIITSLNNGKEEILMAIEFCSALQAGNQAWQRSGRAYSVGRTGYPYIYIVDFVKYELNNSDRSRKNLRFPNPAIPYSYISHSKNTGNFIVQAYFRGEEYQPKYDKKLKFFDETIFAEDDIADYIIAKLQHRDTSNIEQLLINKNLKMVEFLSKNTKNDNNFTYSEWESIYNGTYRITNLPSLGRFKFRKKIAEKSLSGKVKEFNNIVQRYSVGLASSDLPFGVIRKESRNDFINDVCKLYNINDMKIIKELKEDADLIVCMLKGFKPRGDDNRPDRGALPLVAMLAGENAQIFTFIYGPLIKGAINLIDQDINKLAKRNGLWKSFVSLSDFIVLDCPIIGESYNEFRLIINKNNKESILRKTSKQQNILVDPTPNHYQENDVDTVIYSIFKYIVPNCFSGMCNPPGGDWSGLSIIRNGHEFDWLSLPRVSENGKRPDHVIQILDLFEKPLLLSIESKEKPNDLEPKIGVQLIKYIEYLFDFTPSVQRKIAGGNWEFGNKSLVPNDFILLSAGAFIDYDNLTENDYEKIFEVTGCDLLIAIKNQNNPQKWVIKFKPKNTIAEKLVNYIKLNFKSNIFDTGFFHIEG

[2] = test system: T2, BsmI R153D (Bacillus stearothermophilus NUB36); conditions: ds-DNA cleavage; protein in an extract; only the site is given
T2 sequence: T1 sequence with R153D, D513R

[3] = test system: T3, Nb.BsmI (R507D/G509V/E546V) (Bacillus stearothermophilus NUB36); conditions: high nicking activity, bottom strand ^GCATTC by run-off sequencing; active 25-75 C; no linear DNA with 1-30 units in buffer 3 (100 mM NaCl), 65 C 1 h; purified recombinant protein; only the site is given
T3 sequence: T1 sequence with R507D, G509V, D513R, E546V

[4] = test system: T4, BsmI R279D (Bacillus stearothermophilus NUB36); conditions: ds-DNA cleavage; protein in an extract; only the site is given
T4 sequence: T1 sequence with R279D, D513R

Measured: activity on this sequence

GCATTC [pBR322 supercoiled plasmid (one BsmI site)]
active: all assays above
